Assay results reported in patent US9549558B2, “Herbicidal azines” (BASF SE, priority 2012, dated 2017).
Some results were stated once for a whole list of compounds, not compound by compound.

Columns and labels:
Assay type in all cases: in vivo
[1] = tested on: AMARE (Amaranthus retroflexus); assay: greenhouse pre-emergence herbicidal test
Description: (§1) The seeds of the test plants were sown separately for each species. For the pre-emergence treatment, the active ingredients, which had been suspended or emulsified in water, were applied directly after sowing by means of finely distributing nozzles. The containers were irrigated gently to promote germination and growth and subsequently covered with transparent plastic hoods until the plants had rooted. This cover caused uniform germination of the test plants, unless this had been impaired by the active ingredients. Depending on the species, the plants were kept at 10-25° C. or 20-35° C., respectively. The test period extended over 2 to 4 weeks. During this time, the plants were tended, and their response to the individual treatments was evaluated. […] A moderate herbicidal activity is given at values of at least 60, a good herbicidal activity is given at values of at least 70, and a very good herbicidal activity is given at values of at least 85. The plants used in the greenhouse experiments were of the following species: [table]

[2] = tested on: ABUTH (Abutilon theophrasti); assay: greenhouse pre-emergence herbicidal test
Description: as §1

[3] = tested on: ECHCG (Echinocloa crus-galli); assay: greenhouse pre-emergence herbicidal test
Description: (§2) The culture containers used were plastic flowerpots containing loamy sand with approximately 3.0% of humus as the substrate. The seeds of the test plants were sown separately for each species.
(§3) For the pre-emergence treatment, the active ingredients, which had been suspended or emulsified in water, were applied directly after sowing by means of finely distributing nozzles. The containers were irrigated gently to promote germination and growth and subsequently covered with transparent plastic hoods until the plants had rooted. This cover caused uniform germination of the test plants, unless this had been impaired by the active ingredients.
(§4) Depending on the species, the plants were kept at 10-25° C. or 20-35° C., respectively.
(§5) The test period extended over 2 to 4 weeks. During this time, the plants were tended, and their response to the individual treatments was evaluated.
(§6) Evaluation was carried out using a scale from 0 to 100. 100 means no emergence of the plants, or complete destruction of at least the aerial moieties, and 0 means no damage, or normal course of growth. A moderate herbicidal activity is given at values of at least 60, a good herbicidal activity is given at values of at least 70, and a very good herbicidal activity is given at values of at least 85.
(§7) The plants used in the greenhouse experiments were of the following species: […]

[4] = tested on: SETFA (Setaria faberi); assay: greenhouse pre-emergence herbicidal test
Description: as §2, §3, §4, §5, §6, §7

[5] = tested on: AMARE (Amaranthus retroflexus); assay: greenhouse post-emergence herbicidal test
Description: as §2
For the post-emergence treatment, the test plants were first grown to a height of 3 to 15 cm, depending on the plant habit, and only then treated with the active ingredients which had been suspended or emulsified in water. For this purpose, the test plants were either sown directly and grown in the same containers, or they were first grown separately as seedlings and transplanted into the test containers a few days prior to treatment.
as §4, §5, §6, §7

[6] = tested on: SETVI (Setaria viridis); assay: greenhouse pre-emergence herbicidal test; settings: 125 g/ha
Description: as §2, §3, §4, §5, §6, §7

[7] = tested on: STEME (Stellaria media); assay: greenhouse pre-emergence herbicidal test; settings: 125 g/ha
Description: as §2, §3, §4, §5, §6, §7

In the case of `CC1CCC(c2nc(N)nc(Nc3c(F)c(F)cc(F)c3F)n2)CC1` (stereo not shown) [Example 187], the herbicidal activity ([1]; 250 g/ha) is reported as “very good (a very good herbicidal activity is given at values of at least 85)”, the herbicidal activity ([2]; 250 g/ha) is reported as “very good (a very good herbicidal activity is given at values of at least 85)” and the herbicidal activity ([3]; 250 g/ha) is reported as “very good (a very good herbicidal activity is given at values of at least 85)”.
`CNc1nc(Nc2c(F)c(F)c(F)c(F)c2F)nc(C(C)(C)F)n1` [Example 176] was tested, and the herbicidal activity ([1]; 1000 g/ha) was “very good (a very good herbicidal activity is given at values of at least 85)”, the herbicidal activity ([2]; 1000 g/ha) was “very good (a very good herbicidal activity is given at values of at least 85)” and the herbicidal activity ([3]; 1000 g/ha) was “very good (a very good herbicidal activity is given at values of at least 85)”.
`CC(=O)Nc1nc(Nc2c(F)c(F)c(F)c(F)c2F)nc(C(C)(C)F)n1` [Example 115] was tested, and the herbicidal activity ([1]; 1000 g/ha) was “very good (a very good herbicidal activity is given at values of at least 85)”, the herbicidal activity ([2]; 1000 g/ha) was “very good (a very good herbicidal activity is given at values of at least 85)” and the herbicidal activity ([3]; 1000 g/ha) was “very good (a very good herbicidal activity is given at values of at least 85)”.
For `CCC(F)c1nc(N)nc(Nc2c(F)c(F)cc(F)c2F)n1` (stereo not shown) [Example 202], the herbicidal activity ([1]; 500 g/ha) was “very good (a very good herbicidal activity is given at values of at least 85)”, the herbicidal activity ([2]; 500 g/ha) was “very good (a very good herbicidal activity is given at values of at least 85)” and the herbicidal activity ([3]; 500 g/ha) was “very good (a very good herbicidal activity is given at values of at least 85)”.
In the case of `N#CCc1nc(N)nc(Nc2c(F)c(F)cc(F)c2F)n1` [Example 201], the herbicidal activity ([1]; 1000 g/ha) is reported as “very good (a very good herbicidal activity is given at values of at least 85)”, the herbicidal activity ([3]; 1000 g/ha) is reported as “very good (a very good herbicidal activity is given at values of at least 85)” and the herbicidal activity ([4]; 1000 g/ha) is reported as “very good (a very good herbicidal activity is given at values of at least 85)”.
`Nc1nc(Nc2c(F)cc(F)cc2F)nc(C2=CCCC2)n1` [Example 117] was tested, and the herbicidal activity ([5]; 1000 g/ha) was “good (a good herbicidal activity is given at values of at least 70)”.
`CC(C)(F)C(=O)N(c1nc(N)nc(C(C)(C)F)n1)c1c(F)ccc(Cl)c1F` [Example 289] was tested, and the herbicidal activity ([1]; 1000 g/ha) was “very good (a very good herbicidal activity is given at values of at least 85)”, the herbicidal activity ([2]; 1000 g/ha) was “very good (a very good herbicidal activity is given at values of at least 85)” and the herbicidal activity ([3]; 1000 g/ha) was “very good (a very good herbicidal activity is given at values of at least 85)”.
For `CC(Cl)c1nc(N)nc(Nc2c(F)c(F)c(F)c(F)c2F)n1` (stereo not shown) [Example 84], the herbicidal activity ([1]; 125 g/ha) was “very good (a very good herbicidal activity is given at values of at least 85)”, the herbicidal activity ([2]; 125 g/ha) was “very good (a very good herbicidal activity is given at values of at least 85)” and the herbicidal activity ([4]; 125 g/ha) was “very good (a very good herbicidal activity is given at values of at least 85)”.
With `COC(C)(C)c1nc(N)nc(Nc2c(F)c(F)c(F)c(F)c2F)n1` [Example 226] the herbicidal activity ([1]; 500 g/ha) was “very good (a very good herbicidal activity is given at values of at least 85)”, the herbicidal activity ([2]; 500 g/ha) was “very good (a very good herbicidal activity is given at values of at least 85)” and the herbicidal activity ([4]; 500 g/ha) was “very good (a very good herbicidal activity is given at values of at least 85)”.
With `CC(C)(F)c1nc(N)nc(Nc2ccc(C#N)cc2F)n1` [Example 37] the herbicidal activity ([5]; 0.125 kg/ha) was “moderate (A moderate herbicidal activity is given at values of at least 60)”.
In the case of `CC(C)(Cl)c1nc(N)nc(Nc2c(F)c(F)c(Br)c(F)c2F)n1` [Example 218], the herbicidal activity ([1]; 500 g/ha) is reported as “very good (a very good herbicidal activity is given at values of at least 85)”, the herbicidal activity ([2]; 500 g/ha) is reported as “very good (a very good herbicidal activity is given at values of at least 85)” and the herbicidal activity ([4]; 500 g/ha) is reported as “very good (a very good herbicidal activity is given at values of at least 85)”.
For `CC(C)(C#N)c1nc(N)nc(Nc2c(F)c(F)cc(F)c2F)n1` [Example 179], the herbicidal activity ([1]; 250 g/ha) was “very good (a very good herbicidal activity is given at values of at least 85)”, the herbicidal activity ([2]; 250 g/ha) was “very good (a very good herbicidal activity is given at values of at least 85)” and the herbicidal activity ([3]; 250 g/ha) was “very good (a very good herbicidal activity is given at values of at least 85)”.
For `Nc1nc(Nc2c(F)cccc2F)nc(C2CC2)n1` [Example 54], the herbicidal activity ([5]; 0.125 kg/ha) was “moderate (A moderate herbicidal activity is given at values of at least 60)”.
With `CCCCC(C#N)c1nc(N)nc(Nc2c(F)c(F)cc(F)c2F)n1` (stereo not shown) [Example 196] the herbicidal activity ([1]; 1000 g/ha) was “very good (a very good herbicidal activity is given at values of at least 85)”, the herbicidal activity ([3]; 1000 g/ha) was “very good (a very good herbicidal activity is given at values of at least 85)” and the herbicidal activity ([4]; 1000 g/ha) was “very good (a very good herbicidal activity is given at values of at least 85)”.
`Nc1nc(Nc2c(F)c(F)cc(F)c2F)nc(C2CCCCC2)n1` [Example 190] was tested, and the herbicidal activity ([1]; 125 g/ha) was “very good (a very good herbicidal activity is given at values of at least 85)”, the herbicidal activity ([3]; 125 g/ha) was “very good (a very good herbicidal activity is given at values of at least 85)” and the herbicidal activity ([4]; 125 g/ha) was “very good (a very good herbicidal activity is given at values of at least 85)”.
For `CC(C)(F)c1nc(N)nc(Nc2c(F)cc(F)c(F)c2F)n1` [Example 101], the herbicidal activity ([3]; 125 g/ha) was “very good (a very good herbicidal activity is given at values of at least 85)”, the herbicidal activity [6] was “very good (a very good herbicidal activity is given at values of at least 85)” and the herbicidal activity [7] was “very good (a very good herbicidal activity is given at values of at least 85)”.
With `Nc1nc(Nc2c(F)cccc2F)nc(C2=CCCC2)n1` [Example 120] the herbicidal activity ([5]; 1000 g/ha) was “good (a good herbicidal activity is given at values of at least 70)”.
`Nc1nc(Nc2c(F)c(F)c(F)c(F)c2F)nc(C2(F)CCCC2)n1` [Example 188] was tested, and the herbicidal activity ([1]; 125 g/ha) was “very good (a very good herbicidal activity is given at values of at least 85)”, the herbicidal activity ([3]; 125 g/ha) was “very good (a very good herbicidal activity is given at values of at least 85)” and the herbicidal activity ([4]; 125 g/ha) was “very good (a very good herbicidal activity is given at values of at least 85)”.
In the case of `CC(C)(Cl)c1nc(N)nc(Nc2c(F)ccc(F)c2F)n1` [Example 112], the herbicidal activity ([3]; 125 g/ha) is reported as “very good (a very good herbicidal activity is given at values of at least 85)”, the herbicidal activity [6] is reported as “very good (a very good herbicidal activity is given at values of at least 85)” and the herbicidal activity [7] is reported as “very good (a very good herbicidal activity is given at values of at least 85)”.
`COC(C)c1nc(N)nc(Nc2c(F)c(F)c(F)c(F)c2F)n1` (stereo not shown) [Example 168] was tested, and the herbicidal activity ([1]; 1000 g/ha) was “very good (a very good herbicidal activity is given at values of at least 85)”, the herbicidal activity ([2]; 1000 g/ha) was “very good (a very good herbicidal activity is given at values of at least 85)” and the herbicidal activity ([3]; 1000 g/ha) was “very good (a very good herbicidal activity is given at values of at least 85)”.
With `CC(=O)N(c1nc(N)nc(C(C)(C)F)n1)c1c(F)ccc(F)c1F` [Example 294] the herbicidal activity ([1]; 125 g/ha) was “very good (a very good herbicidal activity is given at values of at least 85)”, the herbicidal activity ([3]; 125 g/ha) was “very good (a very good herbicidal activity is given at values of at least 85)” and the herbicidal activity ([4]; 125 g/ha) was “very good (a very good herbicidal activity is given at values of at least 85)”.
With `CC(C)(F)C(=O)N(c1nc(N)nc(C(C)(C)F)n1)c1c(F)c(F)c(F)c(F)c1F` [Example 288] the herbicidal activity ([1]; 1000 g/ha) was “very good (a very good herbicidal activity is given at values of at least 85)”, the herbicidal activity ([2]; 1000 g/ha) was “very good (a very good herbicidal activity is given at values of at least 85)” and the herbicidal activity ([3]; 1000 g/ha) was “very good (a very good herbicidal activity is given at values of at least 85)”.
In the case of `Nc1nc(Nc2c(F)c(F)cc(F)c2F)nc(C2CCC2)n1` [Example 186], the herbicidal activity ([1]; 250 g/ha) is reported as “very good (a very good herbicidal activity is given at values of at least 85)”, the herbicidal activity ([2]; 250 g/ha) is reported as “very good (a very good herbicidal activity is given at values of at least 85)” and the herbicidal activity ([3]; 250 g/ha) is reported as “very good (a very good herbicidal activity is given at values of at least 85)”.
`CCC(C)(F)C(=O)N(c1nc(N)nc(C(C)(F)CC)n1)c1c(F)c(F)cc(F)c1F` (stereo not shown) [Example 295] was tested, and the herbicidal activity ([1]; 125 g/ha) was “very good (a very good herbicidal activity is given at values of at least 85)”, the herbicidal activity ([3]; 125 g/ha) was “very good (a very good herbicidal activity is given at values of at least 85)” and the herbicidal activity ([4]; 125 g/ha) was “very good (a very good herbicidal activity is given at values of at least 85)”.
